Test results: patent US6852538B1, “Nur-RE a response element which binds nur nuclear receptors and method of use therefor” (Institut de Recherches Cliniques de Montreal, priority 1996, dated 2005)
At least one structure is not confirmed: it was looked up by name or label, or the drawing left a doubt.

Key:
Type in all cases: cell-based
Nur-RE [1] = assay: NurRE-luc reporter (three copies of Nur-RE upstream of minimal POMC promoter) in AtT-20 cells
Experimental: (§1) Transfections in AtT-20 cells were performed by lipofection (lipofectin, Gibco) using exponentially growing AtT-20 cells (7.5×10^5) in 35 mm Petri dishes. Cells were grown in DMEM with 10% fetal calf serum stripped with dextran-coated charcoal. Cells and media were harvested 16 h after lipofection. Each sample for lipofection contained a total of 1.5 μg DNA, including 300 ng reporter plasmid, 300 ng RSV-GH as internal control, 100 ng of pCMX-Nur77 expression vector, and total DNA was completed to 1.5 μg with pSP64. The POMC promoter constructs were described previously (Therrien et al., 1991, Mol. Cell. Biol. 11:3492-3503; Therrien et al., 1993, Cell. Biol. 13:2342-2353.). In particular, the NurRE and nGRE linker scanning replacement mutations were described previously as mutants 3 and 15 in a series of promoter mutations (Therrien et al., 1991, supra). DO 11.10 cells were electroporated using a Biorad instruments at 250 V, 960 μFarad, and 10 μg each of reporter plasmid and expression vectors. CRH (10^−7M) and forskolin (10^−7M) were used at maximally active concentrations, and anti-CD3 (clone 145-2C11) was used at 1 μg/ml to coat dishes. The expression plasmid for the Nur77 dominant negative mutant was used at 3 μg/dish. Data are presented as the means ± SEM of 3 to 5 experiments each performed in duplicate.
Transfections in AtT-20 cells were performed by lipofection (Lipofectamine, Gibco) using exponentially growing AtT-20 cells (7.5×10^5) in 35 mm Petri dishes. Cells were grown in DMEM with 10% fetal calf serum stripped with dextrancoated charcoal (Drouin et al., 1976, Endocrinology 98:1528-1534). Cells and media were harvested 16 h after lipofection. Each sample for lipofection contained a total of 1.5 μg DNA, including 300 ng reporter plasmid, 300 ng RSV-GH as internal control, 100 ng of pCMX-Nur77 expression vector, and total DNA was completed to 1.5 μg with pSP64. Where indicated, CRH and Dex were added at 10^−7M. The POMC promoter constructs were described previously (Therrien et al., 1991, Mol. Cell. Biol. 11:3492-3503; Therrien et al., 1993, Mol. Cell. Biol. 13:2342-2353). In particular, the NurRE and nGRE linker scanning replacement mutations were described previously as mutants 3 and 15 in a series of promoter mutations (Therrien et al., 1991, supra). DO 11.10 cells ([…] in 0.35 ml SMEM) were electroporated using a Biorad instruments at 250 V, 960 μFarad, and 10 μq each of reporter plasmid and expression vectors. After electroporation, cells were plated in SMEM containing 5% fetal calf serum with or without 10^−7M Dex, antiCD3 (clone 145-2C11) was used at 1 μg/ml to coat dishes (Iwata et al., 1991, Eur. J. Pharmacol. 21:643-648). TUNEL assay was performed as described (Sgonc et al., 1994, Trends Genet. 10:41-42). […]

[2] = tested on: rat POMC promoter (−480 to +63 bp); assay: POMC promoter-luciferase reporter lipofected in AtT-20 cells; conditions: Dex 10^−7M, construct 1
Experimental: as §1, with “duplicate. […]” for “duplicate.”

Nur-RE [3] = assay: NurRE-luc reporter electroporated in DO11.10 T hybridoma cells; conditions: Dex 10^−7M, DO11.10 cells
GRE = assay: GRE-containing reporter in CV-1 cells; conditions: data not shown

Row | Compound | effect on NurRE-luc induction produced by overexpression of Nur77 (Nur-RE [1]; Dex 10^−7M) | effect on CRH-stimulated NurRE-luc reporter activity (Nur-RE [1]; Dex 10^−7M, CRH 10^−7M) | effect on basal NurRE-luc reporter activity (Nur-RE [1]; basal) | effect on activation of POMC promoter by CRH and Nur77 overexpression [2] | effect on antiCD3-induced NurRE-luc reporter activity (Nur-RE [3]; antiCD3) | effect on basal NurRE-luc reporter activity (Nur-RE [3]; basal) | activation of GRE-containing reporter in the absence of GR expression (GRE) | response of the Nur-RE reporter to forskolin (Nur-RE [1]; forskolin 10^−7M)
1 | C[C@@H]1C[C@H]2[C@@H]3CCC4=CC(=O)C=C[C@]4(C)[C@@]3(F)[C@@H](O)C[C@]2(C)[C@@]1(O)C(=O)CO [Dex, dexamethasone] | partly reversed | completely reversed | insensitive | reversed the activation | repressed the antiCD3-induced activity | decreased basal reporter activity | did not activate | –
2 | C=C[C@@]1(C)CC(=O)[C@]2(O)[C@@]3(C)[C@@H](O)CCC(C)(C)[C@@H]3[C@H](O)[C@H](OC(C)=O)[C@@]2(C)O1 [forskolin] | – | – | – | – | – | – | – | responsive to forskolin but less so than to CRH
